No constants are given. Whether binding was seen depends on the method and setting. In cells and extracts the contact can be indirect. Some binding calls cover weakened binding; strength is not graded here.

Chains of the proteins cited; added tags and fusions are not shown.
UniProt Q13535: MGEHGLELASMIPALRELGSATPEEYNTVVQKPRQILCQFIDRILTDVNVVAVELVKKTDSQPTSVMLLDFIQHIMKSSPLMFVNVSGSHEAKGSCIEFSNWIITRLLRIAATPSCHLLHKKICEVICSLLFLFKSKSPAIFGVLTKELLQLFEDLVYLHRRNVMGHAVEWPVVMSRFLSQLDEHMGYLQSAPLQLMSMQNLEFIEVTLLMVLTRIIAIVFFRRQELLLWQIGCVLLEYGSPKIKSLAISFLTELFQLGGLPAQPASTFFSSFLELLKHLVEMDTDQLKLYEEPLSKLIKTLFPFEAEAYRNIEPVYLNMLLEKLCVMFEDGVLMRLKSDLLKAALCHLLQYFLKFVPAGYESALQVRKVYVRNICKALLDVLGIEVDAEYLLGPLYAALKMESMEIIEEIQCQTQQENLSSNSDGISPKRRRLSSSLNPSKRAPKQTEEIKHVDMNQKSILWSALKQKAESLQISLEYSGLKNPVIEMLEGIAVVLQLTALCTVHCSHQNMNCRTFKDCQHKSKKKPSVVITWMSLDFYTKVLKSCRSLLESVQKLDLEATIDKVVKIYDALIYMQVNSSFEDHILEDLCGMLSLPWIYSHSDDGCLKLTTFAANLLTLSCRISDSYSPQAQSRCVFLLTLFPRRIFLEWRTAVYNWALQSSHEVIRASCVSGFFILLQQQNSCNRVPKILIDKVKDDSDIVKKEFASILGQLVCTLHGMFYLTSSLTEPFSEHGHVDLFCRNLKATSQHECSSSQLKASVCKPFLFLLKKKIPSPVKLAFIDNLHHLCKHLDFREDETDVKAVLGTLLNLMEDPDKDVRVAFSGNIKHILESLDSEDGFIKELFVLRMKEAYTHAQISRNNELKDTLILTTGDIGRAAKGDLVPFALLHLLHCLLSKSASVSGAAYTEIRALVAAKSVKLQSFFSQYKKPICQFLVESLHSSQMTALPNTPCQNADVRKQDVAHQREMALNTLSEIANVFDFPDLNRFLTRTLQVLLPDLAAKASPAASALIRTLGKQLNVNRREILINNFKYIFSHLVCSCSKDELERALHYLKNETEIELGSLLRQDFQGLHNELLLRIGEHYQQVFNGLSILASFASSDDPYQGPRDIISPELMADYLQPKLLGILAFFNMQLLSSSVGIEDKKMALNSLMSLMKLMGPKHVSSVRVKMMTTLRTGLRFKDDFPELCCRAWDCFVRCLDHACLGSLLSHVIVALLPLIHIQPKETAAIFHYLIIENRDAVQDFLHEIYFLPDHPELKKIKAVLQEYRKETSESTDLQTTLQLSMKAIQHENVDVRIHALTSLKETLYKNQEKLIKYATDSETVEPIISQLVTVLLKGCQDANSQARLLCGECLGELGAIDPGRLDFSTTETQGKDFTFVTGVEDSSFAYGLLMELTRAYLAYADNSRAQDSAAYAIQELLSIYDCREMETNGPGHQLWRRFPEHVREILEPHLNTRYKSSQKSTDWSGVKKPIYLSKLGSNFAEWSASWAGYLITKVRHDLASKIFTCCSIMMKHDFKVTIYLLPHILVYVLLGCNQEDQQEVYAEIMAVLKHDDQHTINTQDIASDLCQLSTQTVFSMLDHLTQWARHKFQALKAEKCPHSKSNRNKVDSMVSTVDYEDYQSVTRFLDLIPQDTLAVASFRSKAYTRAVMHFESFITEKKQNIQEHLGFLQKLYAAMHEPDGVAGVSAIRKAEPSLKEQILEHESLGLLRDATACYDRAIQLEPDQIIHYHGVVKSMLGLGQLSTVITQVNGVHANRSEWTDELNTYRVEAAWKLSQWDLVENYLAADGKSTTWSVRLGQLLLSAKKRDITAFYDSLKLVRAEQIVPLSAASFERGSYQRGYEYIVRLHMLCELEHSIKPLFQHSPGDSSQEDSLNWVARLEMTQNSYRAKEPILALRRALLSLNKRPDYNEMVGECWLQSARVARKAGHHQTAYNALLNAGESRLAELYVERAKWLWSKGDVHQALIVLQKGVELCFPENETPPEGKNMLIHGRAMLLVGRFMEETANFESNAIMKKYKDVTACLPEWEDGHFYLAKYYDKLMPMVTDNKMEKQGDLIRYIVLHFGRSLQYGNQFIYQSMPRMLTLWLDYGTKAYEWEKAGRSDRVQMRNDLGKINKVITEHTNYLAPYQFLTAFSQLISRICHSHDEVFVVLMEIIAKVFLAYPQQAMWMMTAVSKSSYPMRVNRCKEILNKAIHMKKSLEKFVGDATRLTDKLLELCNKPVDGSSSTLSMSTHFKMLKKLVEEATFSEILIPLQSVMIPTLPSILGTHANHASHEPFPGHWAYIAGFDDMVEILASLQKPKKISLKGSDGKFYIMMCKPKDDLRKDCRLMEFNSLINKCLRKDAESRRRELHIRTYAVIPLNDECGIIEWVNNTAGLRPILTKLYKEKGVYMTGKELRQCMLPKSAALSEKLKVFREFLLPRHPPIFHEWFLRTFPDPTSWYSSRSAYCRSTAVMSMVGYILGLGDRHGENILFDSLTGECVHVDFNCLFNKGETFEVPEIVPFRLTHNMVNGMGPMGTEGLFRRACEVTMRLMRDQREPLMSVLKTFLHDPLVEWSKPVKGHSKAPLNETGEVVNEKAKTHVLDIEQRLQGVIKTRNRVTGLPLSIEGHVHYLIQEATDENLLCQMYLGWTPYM

We go through 1 substance from publication PMC13249146.

Assay [1] deals with T1, tBid, truncated C-terminal fragment of Bid (human (endogenous in Mia PaCa-2, G3K, G3K-R, PANC-1)) (UniProt P55957).
T1 sequence: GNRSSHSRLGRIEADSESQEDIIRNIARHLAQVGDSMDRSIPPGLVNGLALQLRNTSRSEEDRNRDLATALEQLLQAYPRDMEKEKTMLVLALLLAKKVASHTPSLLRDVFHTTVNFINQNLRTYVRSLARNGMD
Nature of the assay: proximity ligation; PLA for ATR-tBid foci on G3K orthotopic xenograft tumour samples, mice with or without LB-100.

In assay [2] the target is T1, tBid, truncated C-terminal fragment of Bid (human (endogenous in Mia PaCa-2, G3K, G3K-R, PANC-1)). The assay can be described thus: proximity ligation; Duolink PLA with ATR (rabbit) and BID (mouse) antibodies on cultured cells fixed with 4 % PFA and permeabilized with 0.5 % Triton, mitochondria labelled with mtHSP70 antibody; G3K, G3K-R and Mia PaCa-2 cells with or without LB-100; PANC-1 cells with gemcitabine or FOLFIRINOX, with or without LB-100.

For assay [3] the target is unchanged. Nature of the assay: proximity ligation; Duolink PLA as in a1, parental Mia PaCa-2 cells.
The target is the same in assay [4]. The assay can be described thus: co-IP; immunoprecipitation from the cytoplasm fraction of Mia PaCa-2, G3K and G3K-R cells, Western blot; which protein was precipitated is not told.

With “ataxia telangiectasia and Rad3 related (ATR), mitochondria-targeted prolyl cis-isomeric form (mtATR) (from UniProt Q13535 1-2644)”, the binding entry in assay [1] is reported as “binds”; in assay [2] it was “binds”; in assay [3], “binds weakly”; in assay [4], “binds”.
